These are yes or no findings as the source states them, for the method shown. For some of these results: Binding seen in cells or lysates may run through a third protein. Some results given as binding are weak or reduced against the parent protein; the word gives no strength.
Key:
[1] = biological target: Flag-TNKS1 (human TNKS1 with FLAG epitope at the amino terminus), overexpressed in HEK293 cells (human) (UniProt O95271); assay: GST pull-down: GST-Axin1 fusion on glutathione-agarose beads, lysate of HEK293 cells overexpressing Flag-TNKS1
[2] = biological target: Flag-TNKS1 (human TNKS1 with FLAG epitope at the amino terminus), overexpressed in HEK293 cells (human) (UniProt O95271); assay: co-immunoprecipitation with anti-Flag antibodies from transfected HEK293 cells
[3] = biological target: Axin2, endogenous protein in SW480 cells (human) (UniProt Q9Y2T1); assay: co-immunoprecipitation of endogenous proteins from SW480 lysate
[4] = biological target: Axin2, endogenous protein in SW480 cells (human) (UniProt Q9Y2T1); assay: co-immunoprecipitation with anti-Axin2 antibody from SW480 lysate, immunoblot
[5] = biological target: Axin1 (mouse), yeast two-hybrid bait in pGBK-T7 (mouse) (UniProt O35625); assay: yeast two-hybrid with TNKS1 fragments
[6] = biological target: TNKS1 (human), yeast two-hybrid prey in pGAD-T7 (human) (UniProt O95271); assay: yeast two-hybrid, LacZ (X-gal) filter lift
[7] = biological target: T1, TNKS2, yeast two-hybrid construct (UniProt Q9H2K2); assay: yeast two-hybrid, LacZ (X-gal) filter lift
T1 sequence (looked up): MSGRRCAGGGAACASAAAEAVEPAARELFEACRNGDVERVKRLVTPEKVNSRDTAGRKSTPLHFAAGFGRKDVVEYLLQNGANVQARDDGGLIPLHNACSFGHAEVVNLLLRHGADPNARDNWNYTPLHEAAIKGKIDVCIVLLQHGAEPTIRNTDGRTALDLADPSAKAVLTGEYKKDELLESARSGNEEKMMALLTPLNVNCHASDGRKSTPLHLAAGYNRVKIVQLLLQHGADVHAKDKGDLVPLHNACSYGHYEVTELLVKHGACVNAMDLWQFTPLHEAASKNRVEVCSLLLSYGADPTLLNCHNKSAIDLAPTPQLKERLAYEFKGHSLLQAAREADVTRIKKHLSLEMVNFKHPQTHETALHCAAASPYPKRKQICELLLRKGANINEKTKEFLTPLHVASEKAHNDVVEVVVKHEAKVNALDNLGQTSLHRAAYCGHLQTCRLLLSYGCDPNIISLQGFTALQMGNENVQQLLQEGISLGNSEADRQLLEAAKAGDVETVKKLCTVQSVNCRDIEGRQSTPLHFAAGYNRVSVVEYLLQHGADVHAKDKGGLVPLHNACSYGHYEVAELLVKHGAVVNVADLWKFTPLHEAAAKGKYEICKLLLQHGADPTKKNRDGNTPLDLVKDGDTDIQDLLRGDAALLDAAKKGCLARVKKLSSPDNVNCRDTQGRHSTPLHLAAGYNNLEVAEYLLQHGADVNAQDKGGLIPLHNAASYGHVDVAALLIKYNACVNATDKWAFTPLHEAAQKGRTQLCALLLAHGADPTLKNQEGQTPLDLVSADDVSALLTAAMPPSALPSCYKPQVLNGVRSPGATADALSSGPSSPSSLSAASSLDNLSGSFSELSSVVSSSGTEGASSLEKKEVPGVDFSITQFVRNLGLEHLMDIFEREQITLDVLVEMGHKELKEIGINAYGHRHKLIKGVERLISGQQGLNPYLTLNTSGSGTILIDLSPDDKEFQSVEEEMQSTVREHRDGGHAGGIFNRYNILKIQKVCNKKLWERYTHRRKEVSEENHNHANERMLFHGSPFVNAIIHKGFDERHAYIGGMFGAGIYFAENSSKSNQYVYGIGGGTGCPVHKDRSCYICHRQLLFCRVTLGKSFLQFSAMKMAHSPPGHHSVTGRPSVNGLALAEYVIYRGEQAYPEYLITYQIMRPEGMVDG

By UniProt entry, the sequences of proteins in these tests, tags left out. Where a name states a change or a piece, a line headed by the entry shows the natural chain unless it says otherwise.
UniProt O95271: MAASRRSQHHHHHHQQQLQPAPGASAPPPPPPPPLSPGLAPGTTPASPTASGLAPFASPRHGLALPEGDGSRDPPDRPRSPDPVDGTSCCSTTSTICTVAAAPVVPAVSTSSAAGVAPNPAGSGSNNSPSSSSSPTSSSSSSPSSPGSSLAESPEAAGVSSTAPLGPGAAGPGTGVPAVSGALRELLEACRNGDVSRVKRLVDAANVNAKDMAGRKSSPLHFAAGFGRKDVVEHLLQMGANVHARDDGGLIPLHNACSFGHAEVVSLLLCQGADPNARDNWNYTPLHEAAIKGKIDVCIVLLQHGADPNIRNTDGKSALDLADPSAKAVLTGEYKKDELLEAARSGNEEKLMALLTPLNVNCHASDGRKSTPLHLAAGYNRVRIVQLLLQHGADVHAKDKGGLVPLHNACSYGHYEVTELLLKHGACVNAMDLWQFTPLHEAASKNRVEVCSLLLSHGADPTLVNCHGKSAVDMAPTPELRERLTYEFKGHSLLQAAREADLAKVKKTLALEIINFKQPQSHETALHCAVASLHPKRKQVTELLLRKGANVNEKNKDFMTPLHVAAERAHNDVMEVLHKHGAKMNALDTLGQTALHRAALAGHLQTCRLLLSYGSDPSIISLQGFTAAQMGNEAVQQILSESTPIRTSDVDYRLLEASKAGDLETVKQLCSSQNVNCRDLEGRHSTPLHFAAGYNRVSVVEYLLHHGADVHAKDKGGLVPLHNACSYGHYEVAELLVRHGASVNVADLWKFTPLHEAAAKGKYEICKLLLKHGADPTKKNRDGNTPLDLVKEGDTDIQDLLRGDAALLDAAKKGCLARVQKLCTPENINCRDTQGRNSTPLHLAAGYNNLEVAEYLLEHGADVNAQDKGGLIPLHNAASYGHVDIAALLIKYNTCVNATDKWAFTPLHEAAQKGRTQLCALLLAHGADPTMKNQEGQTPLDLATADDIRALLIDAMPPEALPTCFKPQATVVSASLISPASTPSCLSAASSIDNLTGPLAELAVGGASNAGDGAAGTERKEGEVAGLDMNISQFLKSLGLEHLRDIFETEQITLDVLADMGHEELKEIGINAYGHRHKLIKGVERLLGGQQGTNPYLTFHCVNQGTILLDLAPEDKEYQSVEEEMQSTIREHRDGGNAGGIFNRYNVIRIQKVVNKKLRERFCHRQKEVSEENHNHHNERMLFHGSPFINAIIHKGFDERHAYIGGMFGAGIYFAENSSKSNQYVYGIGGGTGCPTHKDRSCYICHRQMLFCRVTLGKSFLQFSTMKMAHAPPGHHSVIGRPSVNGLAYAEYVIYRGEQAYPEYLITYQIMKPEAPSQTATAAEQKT
UniProt Q9Y2T1: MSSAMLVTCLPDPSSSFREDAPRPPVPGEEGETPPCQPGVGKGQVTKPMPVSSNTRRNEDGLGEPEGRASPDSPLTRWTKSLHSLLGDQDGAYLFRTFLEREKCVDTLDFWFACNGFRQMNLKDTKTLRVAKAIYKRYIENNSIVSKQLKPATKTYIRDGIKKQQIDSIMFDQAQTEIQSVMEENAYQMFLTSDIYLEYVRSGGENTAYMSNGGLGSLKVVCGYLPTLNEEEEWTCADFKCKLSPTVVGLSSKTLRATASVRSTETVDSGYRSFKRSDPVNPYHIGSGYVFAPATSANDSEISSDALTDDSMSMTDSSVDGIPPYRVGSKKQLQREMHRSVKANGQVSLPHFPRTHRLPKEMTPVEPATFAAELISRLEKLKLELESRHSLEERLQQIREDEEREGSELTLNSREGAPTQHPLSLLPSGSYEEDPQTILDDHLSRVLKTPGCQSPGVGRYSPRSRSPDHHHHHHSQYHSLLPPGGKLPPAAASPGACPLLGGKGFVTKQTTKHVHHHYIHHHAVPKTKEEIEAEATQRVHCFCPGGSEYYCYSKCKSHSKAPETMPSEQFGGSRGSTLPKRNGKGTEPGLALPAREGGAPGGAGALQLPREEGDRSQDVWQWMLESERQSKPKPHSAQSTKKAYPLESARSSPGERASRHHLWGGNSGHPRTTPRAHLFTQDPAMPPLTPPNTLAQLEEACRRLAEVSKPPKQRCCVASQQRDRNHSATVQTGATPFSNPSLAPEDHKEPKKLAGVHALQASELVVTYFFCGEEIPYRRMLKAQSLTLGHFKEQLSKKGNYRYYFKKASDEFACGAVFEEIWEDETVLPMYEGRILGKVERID
UniProt O35625: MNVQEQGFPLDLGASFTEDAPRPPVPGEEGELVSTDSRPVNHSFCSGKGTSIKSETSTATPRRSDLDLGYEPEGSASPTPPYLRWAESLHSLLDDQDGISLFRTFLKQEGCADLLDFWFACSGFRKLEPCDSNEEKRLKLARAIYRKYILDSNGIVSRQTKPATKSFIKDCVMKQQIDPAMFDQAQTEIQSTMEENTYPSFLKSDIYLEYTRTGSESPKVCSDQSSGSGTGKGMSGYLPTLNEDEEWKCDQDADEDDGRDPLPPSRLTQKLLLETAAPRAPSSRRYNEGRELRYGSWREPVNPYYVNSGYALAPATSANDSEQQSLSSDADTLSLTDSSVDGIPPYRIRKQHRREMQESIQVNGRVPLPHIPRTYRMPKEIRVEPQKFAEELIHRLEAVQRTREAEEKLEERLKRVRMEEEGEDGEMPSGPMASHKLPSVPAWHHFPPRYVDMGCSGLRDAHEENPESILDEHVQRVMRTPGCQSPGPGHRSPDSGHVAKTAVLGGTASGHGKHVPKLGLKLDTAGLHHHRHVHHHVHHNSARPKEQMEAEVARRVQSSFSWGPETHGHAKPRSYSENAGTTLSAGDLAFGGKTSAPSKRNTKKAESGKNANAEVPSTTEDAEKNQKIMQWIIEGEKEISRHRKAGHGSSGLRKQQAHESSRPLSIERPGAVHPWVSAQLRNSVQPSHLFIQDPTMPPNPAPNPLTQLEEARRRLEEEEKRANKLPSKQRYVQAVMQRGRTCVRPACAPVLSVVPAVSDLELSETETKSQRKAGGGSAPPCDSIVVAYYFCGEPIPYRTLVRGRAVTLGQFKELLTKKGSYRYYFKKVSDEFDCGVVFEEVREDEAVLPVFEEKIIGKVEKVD

With “GST-AxinN (amino-terminal 87 amino acid residues of Axin1 fused to GST) (from UniProt O35625 1-87)” the binding [1] was “binds”.
“Axin1 construct transfected into HEK293 cells for co-immunoprecipitation with TNKS1 (from UniProt O35625 1-863)” was tested, and the binding [2] was “binds”.
With “TNKS1 (Tankyrase 1), endogenous protein in SW480 cells (from UniProt O95271 1-1327) (enzyme)” the binding [3] was “binds” and the binding [4] was “binds”.
In the case of “TNKS1 region spanning III, IV, and V ankyrin repeat domains, yeast two-hybrid fragment (from UniProt O95271 488-957)”, the binding [5] is reported as “binds”.
For “Axin1 (mouse), yeast two-hybrid bait in pGBK-T7 (from UniProt O35625 1-863)”, the binding [6] was “binds” and the binding [7] was “binds”.
